Assay results taken from article PMC10750078.

Biological target: T1, TBX5 T-box domain (UniProt Q99593)
T1 sequence (looked up): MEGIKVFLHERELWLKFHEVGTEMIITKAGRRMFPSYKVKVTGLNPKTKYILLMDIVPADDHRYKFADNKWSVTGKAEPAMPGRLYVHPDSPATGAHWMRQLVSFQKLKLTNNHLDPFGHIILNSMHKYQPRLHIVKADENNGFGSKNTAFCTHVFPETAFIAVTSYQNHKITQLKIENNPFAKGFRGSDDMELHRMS
Assay: EMSA
Conditions: T-box or full-length not stated, 50 mM NaCl, 10 mM Tris-HCl pH 8.0, 10% glycerol, 5 nM dsDNA, protein 50-2000 nM, 30 min 30 C then 30 min room temperature, 6% PAGE 0.5x TBE at 4 C, recombinant protein, residues 51-248, protein details: 6xHis, label: IR-700 (5' of bottom strand, primer S20)

Does “AGGACTTCACAGACACTACTCGTGCCAATGCCGCCGTAAG (double strand) [rs7790964-ref]” bind (ref allele)?
Result: binds

Does “AGGACTTCATAGACACTACTCGTGCCAATGCCGCCGTAAG (double strand) [rs7790964-alt]” bind (alt allele, decreased vs ref)?
Result: binds more weakly

Does “GCCGGCAGAGCTGACAGGCGTGCCAATGCCGCCGTAAG (double strand) [chr1:57623182-57623200]” bind (middle SVM score)?
Result: binds more weakly

Does “TGGTGCTGACAGCTGGGACGTGCCAATGCCGCCGTAAG (double strand) [chr2:30359836-30359854]” bind (highest SVM score)?
Result: binds

Does “TTAAGAGAGGGTCAATGATACGTGCCAATGCCGCCGTAAG (double strand) [rs7612445-ref]” bind (ref allele, lower than alt)?
Result: binds more weakly

Does “TTAAGAGAGTGTCAATGATACGTGCCAATGCCGCCGTAAG (double strand) [rs7612445-alt]” bind (alt allele, increased vs ref)?
Result: binds

The exact form of at least one protein or probe is not confirmed. A weaker result is weaker than the reference pair of the same experiment. At least one verdict rests on a figure or table, not on a statement of the authors. Protein sequences can lack the tags named with them.
